Laboratory results from the supplement of paper PMC10849652.
Some of the results follow.

Sequences of proteins named here, by UniProt entry; tags and fusion partners are left off. A change or cut given only in a name is not applied to a line headed by its entry.
UniProt Q9UH17: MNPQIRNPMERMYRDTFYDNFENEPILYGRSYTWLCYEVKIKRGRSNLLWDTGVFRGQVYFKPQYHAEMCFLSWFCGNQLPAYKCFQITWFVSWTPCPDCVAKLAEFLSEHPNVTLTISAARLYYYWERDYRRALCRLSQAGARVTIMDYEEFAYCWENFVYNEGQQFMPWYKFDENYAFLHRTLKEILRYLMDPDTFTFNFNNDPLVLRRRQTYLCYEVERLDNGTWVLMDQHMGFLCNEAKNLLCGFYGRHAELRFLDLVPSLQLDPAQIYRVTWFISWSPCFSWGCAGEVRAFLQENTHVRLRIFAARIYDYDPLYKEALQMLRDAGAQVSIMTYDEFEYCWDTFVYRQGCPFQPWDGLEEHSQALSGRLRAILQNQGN
UniProt O96018: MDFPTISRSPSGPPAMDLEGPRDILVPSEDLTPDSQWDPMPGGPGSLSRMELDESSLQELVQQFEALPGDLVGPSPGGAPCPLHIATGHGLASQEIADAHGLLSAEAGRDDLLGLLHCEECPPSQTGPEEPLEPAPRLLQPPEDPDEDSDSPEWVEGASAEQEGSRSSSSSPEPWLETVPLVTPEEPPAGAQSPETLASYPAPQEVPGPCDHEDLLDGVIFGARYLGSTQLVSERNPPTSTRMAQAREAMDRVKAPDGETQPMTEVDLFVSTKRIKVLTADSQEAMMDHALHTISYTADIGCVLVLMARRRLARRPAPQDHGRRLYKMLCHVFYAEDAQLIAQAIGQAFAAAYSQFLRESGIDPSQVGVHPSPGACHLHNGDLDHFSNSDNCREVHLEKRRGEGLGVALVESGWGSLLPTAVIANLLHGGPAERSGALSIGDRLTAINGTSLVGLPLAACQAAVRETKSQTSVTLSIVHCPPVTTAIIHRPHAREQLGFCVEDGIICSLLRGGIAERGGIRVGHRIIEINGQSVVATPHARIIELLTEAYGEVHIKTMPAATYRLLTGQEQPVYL
UniProt Q6P1M9: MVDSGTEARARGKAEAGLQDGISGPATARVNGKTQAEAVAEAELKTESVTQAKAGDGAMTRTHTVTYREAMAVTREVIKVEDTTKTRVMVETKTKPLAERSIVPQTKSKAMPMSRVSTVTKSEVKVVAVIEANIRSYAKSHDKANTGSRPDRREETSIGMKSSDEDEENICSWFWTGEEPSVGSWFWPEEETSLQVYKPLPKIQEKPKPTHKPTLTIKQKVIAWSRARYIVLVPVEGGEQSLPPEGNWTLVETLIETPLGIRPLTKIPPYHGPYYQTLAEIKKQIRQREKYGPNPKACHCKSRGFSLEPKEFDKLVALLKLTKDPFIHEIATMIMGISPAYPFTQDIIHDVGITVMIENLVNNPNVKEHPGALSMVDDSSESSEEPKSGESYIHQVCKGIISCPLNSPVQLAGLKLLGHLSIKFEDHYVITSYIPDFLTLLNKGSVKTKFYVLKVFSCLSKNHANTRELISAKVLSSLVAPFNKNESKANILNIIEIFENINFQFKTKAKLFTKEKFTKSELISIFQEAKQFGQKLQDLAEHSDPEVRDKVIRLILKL
UniProt Q9BZZ5: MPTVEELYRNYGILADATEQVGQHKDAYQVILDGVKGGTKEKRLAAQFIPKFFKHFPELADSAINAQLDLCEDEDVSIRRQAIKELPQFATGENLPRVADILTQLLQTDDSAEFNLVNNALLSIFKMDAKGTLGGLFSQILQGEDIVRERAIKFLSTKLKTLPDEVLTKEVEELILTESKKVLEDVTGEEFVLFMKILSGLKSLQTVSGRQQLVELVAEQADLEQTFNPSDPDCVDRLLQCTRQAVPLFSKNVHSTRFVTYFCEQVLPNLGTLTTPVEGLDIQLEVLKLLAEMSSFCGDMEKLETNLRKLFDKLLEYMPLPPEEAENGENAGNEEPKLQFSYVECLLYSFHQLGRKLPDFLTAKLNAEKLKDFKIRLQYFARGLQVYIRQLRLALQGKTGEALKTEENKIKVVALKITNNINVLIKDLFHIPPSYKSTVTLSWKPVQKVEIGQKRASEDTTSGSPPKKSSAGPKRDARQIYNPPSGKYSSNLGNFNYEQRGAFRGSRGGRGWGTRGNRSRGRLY
UniProt P84077: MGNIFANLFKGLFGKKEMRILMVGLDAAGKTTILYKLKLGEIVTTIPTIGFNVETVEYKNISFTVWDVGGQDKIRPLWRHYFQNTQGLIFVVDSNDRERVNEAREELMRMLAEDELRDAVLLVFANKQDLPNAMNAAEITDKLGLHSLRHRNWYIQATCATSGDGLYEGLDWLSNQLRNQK
UniProt Q02410: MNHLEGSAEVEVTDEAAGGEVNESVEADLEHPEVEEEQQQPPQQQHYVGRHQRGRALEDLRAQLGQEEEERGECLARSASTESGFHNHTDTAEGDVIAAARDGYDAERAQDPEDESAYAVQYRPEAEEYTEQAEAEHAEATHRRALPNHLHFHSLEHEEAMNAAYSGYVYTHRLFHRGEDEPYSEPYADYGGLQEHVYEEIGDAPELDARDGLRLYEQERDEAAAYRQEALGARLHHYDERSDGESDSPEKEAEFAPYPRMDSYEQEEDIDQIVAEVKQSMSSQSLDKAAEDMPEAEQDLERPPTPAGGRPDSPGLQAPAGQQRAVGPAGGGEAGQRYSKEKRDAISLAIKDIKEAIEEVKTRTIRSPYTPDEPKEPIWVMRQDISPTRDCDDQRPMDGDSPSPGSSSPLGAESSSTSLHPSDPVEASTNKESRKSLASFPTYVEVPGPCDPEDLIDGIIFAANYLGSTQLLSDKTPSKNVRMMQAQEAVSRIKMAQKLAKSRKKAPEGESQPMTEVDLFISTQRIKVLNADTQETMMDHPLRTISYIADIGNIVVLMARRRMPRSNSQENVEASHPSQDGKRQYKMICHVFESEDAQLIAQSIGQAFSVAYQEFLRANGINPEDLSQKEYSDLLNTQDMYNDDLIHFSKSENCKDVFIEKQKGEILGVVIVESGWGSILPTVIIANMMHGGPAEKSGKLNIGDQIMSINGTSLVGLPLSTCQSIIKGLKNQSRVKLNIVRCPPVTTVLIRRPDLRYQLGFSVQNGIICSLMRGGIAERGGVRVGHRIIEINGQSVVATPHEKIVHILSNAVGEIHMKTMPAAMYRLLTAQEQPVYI
UniProt Q8IUX4: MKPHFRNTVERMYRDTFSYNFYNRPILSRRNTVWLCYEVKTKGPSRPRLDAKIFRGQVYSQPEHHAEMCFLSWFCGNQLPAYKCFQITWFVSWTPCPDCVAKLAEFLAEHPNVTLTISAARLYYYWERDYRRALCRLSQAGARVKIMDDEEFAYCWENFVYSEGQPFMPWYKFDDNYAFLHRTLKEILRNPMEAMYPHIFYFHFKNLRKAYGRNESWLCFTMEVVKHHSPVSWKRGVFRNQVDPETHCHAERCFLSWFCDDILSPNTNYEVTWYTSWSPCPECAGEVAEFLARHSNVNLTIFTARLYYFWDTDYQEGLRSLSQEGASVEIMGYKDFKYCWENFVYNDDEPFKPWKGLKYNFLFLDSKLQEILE
UniProt Q14CB8: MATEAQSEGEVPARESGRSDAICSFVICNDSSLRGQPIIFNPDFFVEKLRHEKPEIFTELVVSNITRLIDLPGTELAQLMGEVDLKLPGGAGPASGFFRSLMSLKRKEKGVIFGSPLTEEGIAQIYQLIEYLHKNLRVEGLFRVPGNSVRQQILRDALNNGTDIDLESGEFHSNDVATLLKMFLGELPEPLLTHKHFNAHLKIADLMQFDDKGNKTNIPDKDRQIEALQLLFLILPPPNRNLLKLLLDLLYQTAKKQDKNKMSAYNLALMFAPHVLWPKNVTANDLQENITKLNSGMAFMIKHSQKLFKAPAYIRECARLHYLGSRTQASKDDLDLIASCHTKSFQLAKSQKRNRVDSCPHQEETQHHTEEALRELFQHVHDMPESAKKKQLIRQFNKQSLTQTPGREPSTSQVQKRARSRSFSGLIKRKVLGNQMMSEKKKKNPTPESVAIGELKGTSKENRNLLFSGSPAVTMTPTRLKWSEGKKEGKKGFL
UniProt Q8N8R7: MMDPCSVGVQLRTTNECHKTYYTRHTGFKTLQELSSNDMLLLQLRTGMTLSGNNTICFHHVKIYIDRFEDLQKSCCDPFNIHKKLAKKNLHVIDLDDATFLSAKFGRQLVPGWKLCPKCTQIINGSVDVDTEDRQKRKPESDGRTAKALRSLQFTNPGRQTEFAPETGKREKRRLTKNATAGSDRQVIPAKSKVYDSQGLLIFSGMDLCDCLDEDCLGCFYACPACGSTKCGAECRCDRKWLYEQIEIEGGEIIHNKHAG
UniProt O00192: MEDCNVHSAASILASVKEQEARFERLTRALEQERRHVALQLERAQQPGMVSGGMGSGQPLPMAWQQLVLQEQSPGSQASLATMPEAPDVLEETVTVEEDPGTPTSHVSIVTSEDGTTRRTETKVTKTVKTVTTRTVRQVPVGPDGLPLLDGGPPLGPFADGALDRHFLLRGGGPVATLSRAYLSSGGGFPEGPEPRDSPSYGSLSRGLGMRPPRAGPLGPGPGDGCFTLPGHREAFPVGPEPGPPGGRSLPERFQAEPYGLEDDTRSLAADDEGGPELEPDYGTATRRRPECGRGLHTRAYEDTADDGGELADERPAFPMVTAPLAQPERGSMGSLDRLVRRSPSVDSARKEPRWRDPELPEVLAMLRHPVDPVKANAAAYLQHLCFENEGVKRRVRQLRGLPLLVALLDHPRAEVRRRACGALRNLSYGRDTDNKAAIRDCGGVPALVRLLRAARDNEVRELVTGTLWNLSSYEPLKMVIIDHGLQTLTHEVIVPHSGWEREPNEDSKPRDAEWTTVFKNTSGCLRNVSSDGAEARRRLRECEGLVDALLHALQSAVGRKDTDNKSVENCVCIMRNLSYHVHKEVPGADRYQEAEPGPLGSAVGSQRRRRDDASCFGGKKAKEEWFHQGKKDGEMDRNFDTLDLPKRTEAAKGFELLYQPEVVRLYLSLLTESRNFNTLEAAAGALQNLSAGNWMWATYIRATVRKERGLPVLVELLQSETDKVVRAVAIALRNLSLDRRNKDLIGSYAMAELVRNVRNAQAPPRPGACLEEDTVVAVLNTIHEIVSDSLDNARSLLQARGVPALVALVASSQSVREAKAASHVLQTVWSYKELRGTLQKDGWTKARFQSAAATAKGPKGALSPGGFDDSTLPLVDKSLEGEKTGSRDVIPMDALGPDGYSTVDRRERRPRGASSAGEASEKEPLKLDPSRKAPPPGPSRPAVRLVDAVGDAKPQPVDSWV
UniProt Q9C0H5: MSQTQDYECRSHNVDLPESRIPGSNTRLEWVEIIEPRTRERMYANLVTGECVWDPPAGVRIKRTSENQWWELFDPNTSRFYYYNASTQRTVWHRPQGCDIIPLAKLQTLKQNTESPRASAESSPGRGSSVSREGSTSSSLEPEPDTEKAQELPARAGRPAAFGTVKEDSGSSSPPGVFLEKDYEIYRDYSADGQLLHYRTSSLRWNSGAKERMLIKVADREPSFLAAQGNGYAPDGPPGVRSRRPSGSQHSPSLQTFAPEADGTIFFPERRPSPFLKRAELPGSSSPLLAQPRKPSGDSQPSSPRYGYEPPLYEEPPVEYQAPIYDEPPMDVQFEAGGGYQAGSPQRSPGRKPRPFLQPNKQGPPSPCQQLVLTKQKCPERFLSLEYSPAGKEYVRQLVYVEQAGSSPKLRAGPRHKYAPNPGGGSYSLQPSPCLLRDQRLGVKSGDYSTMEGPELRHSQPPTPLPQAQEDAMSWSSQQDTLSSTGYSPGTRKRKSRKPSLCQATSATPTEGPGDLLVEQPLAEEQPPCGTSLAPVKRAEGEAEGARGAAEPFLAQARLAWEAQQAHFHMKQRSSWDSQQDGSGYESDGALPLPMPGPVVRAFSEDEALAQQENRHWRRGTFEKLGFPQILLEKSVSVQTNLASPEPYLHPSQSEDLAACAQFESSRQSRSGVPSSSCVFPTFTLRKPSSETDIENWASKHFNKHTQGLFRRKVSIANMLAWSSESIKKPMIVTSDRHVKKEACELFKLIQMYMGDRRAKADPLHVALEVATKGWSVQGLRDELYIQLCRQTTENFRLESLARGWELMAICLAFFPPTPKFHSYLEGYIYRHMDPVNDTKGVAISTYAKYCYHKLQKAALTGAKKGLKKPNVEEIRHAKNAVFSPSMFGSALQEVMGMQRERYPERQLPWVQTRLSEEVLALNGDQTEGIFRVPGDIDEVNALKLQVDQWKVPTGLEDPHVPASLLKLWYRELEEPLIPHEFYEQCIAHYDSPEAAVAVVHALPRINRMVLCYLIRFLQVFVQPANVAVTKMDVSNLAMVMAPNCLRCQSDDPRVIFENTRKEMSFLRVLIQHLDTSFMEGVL
UniProt P40617: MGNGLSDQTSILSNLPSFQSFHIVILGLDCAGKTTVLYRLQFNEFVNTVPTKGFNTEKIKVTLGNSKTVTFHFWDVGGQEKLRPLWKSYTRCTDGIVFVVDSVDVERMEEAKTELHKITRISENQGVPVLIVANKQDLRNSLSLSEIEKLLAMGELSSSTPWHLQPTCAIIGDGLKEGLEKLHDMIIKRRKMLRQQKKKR

Tests used:
Assay in all cases: log2 fold change, soluble protein after heating vs DMSO (PISA); higher = thermal stabilisation; K562 lysate, 10 uM; active = over 0.2 and 3.5 SD of the protein, either way, in both replicates (recomputed)
[1] = compound: C#Cc1cccc(Nc2ncnc3cc(OCCOC)c(OCCOC)cc23)c1 [erlotinib]
Summary of the method: (§1)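 Pellets of K562 cells were dounce-homogenised in PBS pH 7.4 with 1 mM MgCl2, and the crude extract was held at 1 mg/mL protein for a 30 min treatment with 10 μM compound. Aliquots were heated for 3 min over 48°C-58°C and pooled before NP-40 was added to 0.5% at 4°C. The supernatant from 21,000xg for 90 min was quantified by TMTpro 16plex LC-MS/MS with channel sums equalised. Values are reported from duplicates as log-two fold change in thermal stability relative to solvent controls.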

[2] = compound: C/C(=N\NC(=O)C1=CC(=CC=C1)S(=O)(=O)N2CCOCC2)/C3=C(C=CC(=C3)Cl)O
Summary of the method: as §1

[3] = compound: C1=CC(=CC=C1C2=NC3=C(N2)C=C(C=C3)C(=O)N)OC4=CC=C(C=C4)Cl
Summary of the method: as §1

[4] = compound: C1=CC2=C(C=CC(=C2)/C=C\3/C(=O)NC(=NCC4=CC=CS4)S3)N=C1
Summary of the method: as §1

[5] = compound: C1=CC=C(C=C1)C2=NC(=C(N2)C3=CC=NC=C3)C4=CC(=C(C=C4)Cl)O
Summary of the method: as §1

[6] = compound: C1=CC=C2C(=C1)C3=NNC4=CC=CC(=C43)C2=O
Summary of the method: as §1

[7] = compound: C1CCN(C1)C(=O)NC2=CC=CC(=C2)NC3=NC=C(C(=N3)NCCC4=CN=CN4)Br
Summary of the method: as §1

[8] = compound: C1CN(CCC1(CC2=CC=C(C=C2)Cl)N)C3=NC=NC4=C3C=CN4
Summary of the method: as §1

[9] = compound: C1COCCN1CCN2C3=CC=CC=C3N=C2NC(=O)C4=CC(=CC=C4)[N+](=O)[O-] [IRAK-1-4 Inhibitor I]
Summary of the method: as §1

[10] = compound: CC(C)(C)Cn1c(N)nc2ccc(-c3[nH]c(C(C)(C)C)nc3-c3ccc(F)cc3)nc21 [ralimetinib]
Summary of the method: as §1

[11] = compound: CC(C)(O)CC(=O)NCCn1ccc2ncnc(Nc3ccc(Oc4cccc(C(F)(F)F)c4)c(Cl)c3)c21
Summary of the method: as §1

[12] = compound: CC(C)C1=C2N=C(C=C(N2N=C1)NCC3=CC=CC=C3)NCCCCCCN
Summary of the method: as §1

[13] = compound: CC1=C(C(CC(=O)N1)C2=CC=C(C=C2)C(F)(F)F)C(=O)NC3=C(C=C4C(=C3)C=NN4)F
Summary of the method: as §1

[14] = compound: CC1=C(C2=C(C=C1)C(=O)C3=CC=CC=C3N2CCCN)C
Summary of the method: as §1

[15] = compound: CC1=C(C=C(C=C1)NC(=O)C2=CC(=CC=C2)C(C)(C)C#N)NC3=CC4=C(C=C3)N=CN(C4=O)C
Summary of the method: as §1

[16] = compound: CC1=C(C=C(C=C1)NC(=O)C2=CC(=CC=C2)N(C)C)NC(=O)C3=CC=C(C=C3)O
Summary of the method: as §1

[17] = compound: CC(=O)c1cnc2ccc(-c3cc(Cl)c(O)c(Cl)c3)nc2c1N[C@H]1CC[C@H](CN(C)C)CC1
Summary of the method: as §1

[18] = compound: CC1=CC=C(C=C1)SC2=C3C=C(SC3=CN=C2)C(=O)N
Summary of the method: as §1

[19] = compound: C1=CC2=NC=CN=C2C=C1/C=C/3\C(=O)NC(=O)S3
Summary of the method: as §1

[20] = compound: C=CC(=O)N1CCC[C@@H](n2nc(-c3ccc(Oc4ccccc4)cc3)c3c(N)ncnc32)C1 [ibrutinib]
Summary of the method: as §1

Row | Target | log2 fold change [1] | log2 fold change [2] | log2 fold change [3] | log2 fold change [4] | log2 fold change [5] | log2 fold change [6] | log2 fold change [7] | log2 fold change [8] | log2 fold change [9] | log2 fold change [10] | log2 fold change [11] | log2 fold change [12] | log2 fold change [13] | log2 fold change [14] | log2 fold change [15] | log2 fold change [16] | log2 fold change [17] | log2 fold change [18] | log2 fold change [19] | log2 fold change [20]
1 | APOBEC3B (UniProt Q9UH17) | inactive: -0.086 | inactive: 0.034 | inactive: 0.146 | inactive: 0.007 | inactive: 0.049 | inactive: -0.038 | inactive: 0.023 | inactive: -0.09 | inactive: -0.037 | inactive: 0.044 | inactive: -0.021 | inactive: 0.224 | inactive: 0.112 | inactive: -0.07 | inactive: 0.162 | inactive: -0.056 |  |  |  | 
2 | ARHGAP24 (UniProt Q8N264) | inactive: 0.068 | inactive: -0.146 | inactive: -0.036 | inactive: 0.098 |  | inactive: 0.024 | inactive: -0.036 | inactive: -0.057 |  |  |  | inactive: -0.025 | inactive: -0.013 |  |  |  |  |  |  | 
3 | ARHGEF40 (UniProt Q8TER5) | inactive: -0.023 |  | inactive: 0.084 |  | inactive: 0.086 |  |  |  | inactive: -0.028 | inactive: 0.035 | inactive: -0.204 | inactive: 0.006 | inactive: -0.039 | inactive: -0.139 |  | inactive: -0.016 | inactive: 0.171 | inactive: 0.045 |  | 
4 | APBA3 (UniProt O96018) | inactive: -0.006 | inactive: -0.115 | inactive: -0.022 | inactive: -0.098 | inactive: -0.065 | inactive: -0.214 | inactive: 0.007 | inactive: -0.308 | inactive: 0.075 | inactive: 0.027 | inactive: -0.152 | inactive: -0.063 |  |  | inactive: -0.128 | inactive: 0.112 | inactive: -0.203 | inactive: 0.07 |  | 
5 | ARMCX5 (UniProt Q6P1M9) | inactive: -0.08 | inactive: 0.047 | inactive: -0.004 | inactive: 0.157 | inactive: 0.03 | active: -0.35 | inactive: 0.075 | inactive: -0.039 | inactive: -0.08 | inactive: 0.012 | inactive: 0.013 | inactive: -0.004 | inactive: -0.047 | inactive: 0.053 |  | inactive: -0.049 | inactive: -0.018 | inactive: -0.093 | inactive: 0.001 | inactive: 0.04
6 | API5 isoform 2 (UniProt Q9BZZ5) | inactive: -0.118 | inactive: 0.033 | inactive: 0.021 | inactive: -0.097 | inactive: 0.019 | inactive: 0.074 | inactive: -0.065 | inactive: 0.034 | inactive: 0.001 | inactive: 0.053 | inactive: 0.022 | inactive: 0.104 | inactive: 0 | inactive: -0.04 | inactive: -0.091 | inactive: -0.05 | inactive: -0.011 | inactive: 0.087 | inactive: 0.005 | inactive: 0.012
7 | ARF1 (UniProt P84077) | inactive: 0.036 |  | inactive: -0.087 |  | inactive: -0.037 |  |  |  | inactive: 0.108 | inactive: 0.009 | inactive: -0.072 | inactive: -0.243 |  |  | inactive: 0.091 | inactive: -0.087 | inactive: -0.162 | inactive: -0.456 |  | 
8 | APBA1 (UniProt Q02410) | inactive: 0.053 |  | inactive: -0.01 |  | inactive: 0.146 |  | inactive: -0.033 | inactive: -0.017 | inactive: -0.04 | inactive: 0.09 | inactive: -0.021 | inactive: -0.01 | inactive: -0.037 |  | inactive: -0.004 | inactive: 0.115 | inactive: 0.021 | inactive: -0.008 | inactive: 0.123 | inactive: -0.095
9 | APOBEC3F (UniProt Q8IUX4) | inactive: 0.07 | inactive: -0.054 | inactive: -0.242 | inactive: -0.01 |  | inactive: -0.058 | inactive: 0.008 | inactive: 0.008 |  |  |  | inactive: -0.031 | inactive: 0.061 |  | inactive: 0.032 |  | inactive: -0.332 | inactive: 0.083 | inactive: -0.14 | inactive: -0.013
10 | ARHGAP19 isoform 2 (UniProt Q14CB8) | inactive: 0.027 | inactive: -0.061 | inactive: 0.012 | inactive: -0.158 | inactive: 0.043 | inactive: 0.034 | inactive: -0.04 | inactive: -0.069 | inactive: -0.021 | inactive: -0.023 | inactive: 0.05 | inactive: 0.028 | inactive: -0.042 | inactive: -0.005 | inactive: 0.023 | inactive: 0.026 |  |  | inactive: 0.14 | inactive: 0.324
11 | ARL14EP (UniProt Q8N8R7) | inactive: -0.014 | inactive: -0.202 | inactive: -0.002 | inactive: 0.218 | inactive: 0.041 | inactive: -0.053 |  |  | inactive: -0.025 | inactive: 0.056 | inactive: -0.017 | inactive: -0.047 | inactive: 0.018 | inactive: -0.144 | inactive: -0.03 | inactive: 0.059 |  |  | inactive: 0.084 | inactive: 0.016
12 | ARVCF (UniProt O00192) | inactive: 0.07 | inactive: -0.025 | inactive: 0.111 | inactive: 0.056 | inactive: 0.052 | inactive: -0.047 | inactive: -0.014 | inactive: -0.093 | inactive: 0.09 | inactive: -0.006 | inactive: -0.079 | inactive: -0.045 | inactive: -0.072 | inactive: 0.02 | inactive: 0.023 | inactive: 0.023 | inactive: -0.239 | inactive: -0.266 |  | 
13 | ARHGAP39 isoform 2 (UniProt Q9C0H5) |  |  |  |  |  |  |  |  |  |  |  |  |  |  | inactive: -0.062 |  | inactive: -0.165 | inactive: 0.037 |  | 
14 | ARL4A (UniProt P40617) |  |  |  |  |  |  | inactive: -0.021 | inactive: -0.105 |  |  |  |  | inactive: 0.055 |  |  |  |  |  |  | 

A section from the list above:
Row | Target | log2 fold change [1] | log2 fold change [2] | log2 fold change [3] | log2 fold change [4] | log2 fold change [5] | log2 fold change [6] | log2 fold change [7] | log2 fold change [8] | log2 fold change [9] | log2 fold change [10] | log2 fold change [11] | log2 fold change [12] | log2 fold change [13] | log2 fold change [14] | log2 fold change [15] | log2 fold change [16] | log2 fold change [17] | log2 fold change [18] | log2 fold change [19] | log2 fold change [20]
2 | ARHGAP24 (UniProt Q8N264) | inactive: 0.068 | inactive: -0.146 | inactive: -0.036 | inactive: 0.098 |  | inactive: 0.024 | inactive: -0.036 | inactive: -0.057 |  |  |  | inactive: -0.025 | inactive: -0.013 |  |  |  |  |  |  | 
3 | ARHGEF40 (UniProt Q8TER5) | inactive: -0.023 |  | inactive: 0.084 |  | inactive: 0.086 |  |  |  | inactive: -0.028 | inactive: 0.035 | inactive: -0.204 | inactive: 0.006 | inactive: -0.039 | inactive: -0.139 |  | inactive: -0.016 | inactive: 0.171 | inactive: 0.045 |  | 
